Measured values published in the supplement of paper PMC6078165.

Test system: MDAMB468
Assay: relative JC-1 red fluorescence (viability) vs pre-drug, coculture with fibroblast (fraction); higher = more viable cancer cells
Method: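 JC-1 labelled TNBC cells cocultured 1:1 (1,500 cells each) with CellTrace Violet stained primary or stromal fibroblasts in 384-well plates in FluoroBrite medium, treated with one of 42 anticancer drugs at 0.1, 1, 10 or 100 uM. JC-1 red fluorescence (mitochondrial integrity in cancer cells only) was read by plate reader every 8 h for 72 h. Values are normalised to each well's pre-drug value. The stock of one drug was tenfold lower, so its dose labels may be too high.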

CO[C@@]12[C@H](COC(N)=O)C3=C(C(=O)C(C)=C(N)C3=O)N1C[C@@H]1N[C@@H]12 [Mitomycin C]
relative JC-1 red fluorescence
Details	8 h	16 h	24 h	32 h	40 h	48 h	56 h	64 h	72 h
10 µM, coculture fibroblast: C12385	0.901	0.841	0.699	0.57	0.471	0.454	0.404	0.371	0.357
10 µM, coculture fibroblast: H6013	0.879	0.8002	0.693	0.616	0.533	0.521	0.475	0.446	0.381
10 µM, coculture fibroblast: H6019	0.841	0.7148	0.602	0.48	0.397	0.373	0.339	0.326	0.323
10 µM, coculture fibroblast: H6076	0.9434	0.9054	0.788	0.742	0.633	0.583	0.518	0.481	0.526
10 µM, coculture fibroblast: H6231	0.837	0.935	0.821	0.7401	0.618	0.583	0.502	0.474	0.457
10 µM, coculture fibroblast: HADF	0.865	0.804	0.706	0.648	0.567	0.552	0.50539	0.482	0.414
10 µM, coculture fibroblast: HCFa	0.877	0.769	0.676	0.585	0.484	0.469	0.424	0.396	0.333
10 µM, coculture fibroblast: HCPF	0.895	0.884	0.839	0.832	0.707	0.659	0.608	0.592	0.591
10 µM, coculture fibroblast: HHSteC	0.893	0.819	0.742	0.673	0.5967	0.601	0.528	0.496	0.429
10 µM, coculture fibroblast: HMF	0.826	0.902	0.792	0.722	0.579	0.51	0.455	0.428	0.422
10 µM, coculture fibroblast: HPFa	0.953	0.903	0.877	0.773	0.728	0.747	0.668	0.657	0.579
10 µM, coculture fibroblast: HUF	0.908	0.8115	0.675	0.524	0.449	0.425	0.374	0.357	0.342
10 µM, coculture fibroblast: Hs5	0.811	0.881	0.818	0.705	0.581	0.522	0.488	0.453	0.484
10 µM, coculture fibroblast: Hs27A	0.823	0.749	0.66189	0.6146	0.5696	0.566	0.519	0.498	0.425
10 µM, coculture fibroblast: Hs343T	0.887	0.94	0.7928	0.715	0.568	0.517	0.441	0.413	0.401
10 µM, coculture fibroblast: WS1	0.8961	0.765	0.681	0.591	0.495	0.462	0.422	0.4	0.389
100 µM, coculture fibroblast: C12385	0.691	0.681	0.658	0.621	0.594	0.608	0.586	0.581	0.577
100 µM, coculture fibroblast: H6013	0.643	0.613	0.5861	0.548	0.566	0.5652	0.5411	0.5316	0.474
100 µM, coculture fibroblast: H6019	0.624	0.579	0.543	0.499	0.468	0.467	0.437	0.432	0.426
100 µM, coculture fibroblast: H6076	0.757	0.641	0.617	0.625	0.559	0.572	0.558	0.561	0.596
100 µM, coculture fibroblast: H6231	0.656	0.634	0.6	0.64	0.539	0.539	0.517	0.513	0.53
100 µM, coculture fibroblast: HADF	0.698	0.716	0.678	0.653	0.664	0.668	0.646	0.645	0.5632
100 µM, coculture fibroblast: HCFa	0.689	0.6508	0.6185	0.60058	0.6132	0.6225	0.6046	0.5959	0.5341
100 µM, coculture fibroblast: HCPF	0.741	0.639	0.618	0.658	0.577	0.563	0.543	0.54	0.554
100 µM, coculture fibroblast: HHSteC	0.698	0.6962	0.683	0.637	0.651	0.654	0.607	0.595	0.537
100 µM, coculture fibroblast: HMF	0.734	0.639	0.622	0.635	0.555	0.55	0.544	0.546	0.571
100 µM, coculture fibroblast: HPFa	0.645	0.618	0.586	0.526	0.549	0.556	0.52	0.519	0.464
100 µM, coculture fibroblast: HUF	0.6868	0.621	0.5885	0.5459	0.5186	0.524	0.492	0.499	0.489
100 µM, coculture fibroblast: Hs5	0.801	0.6908	0.686	0.685	0.62	0.6	0.594	0.576	0.608
100 µM, coculture fibroblast: Hs27A	0.632	0.676	0.6283	0.6143	0.62386	0.6285	0.6092	0.6039	0.529
100 µM, coculture fibroblast: Hs343T	0.725	0.612	0.584	0.59	0.508	0.506	0.498	0.499	0.518
100 µM, coculture fibroblast: WS1	0.62172	0.565	0.5339	0.4911	0.4697	0.465	0.4485	0.454	0.446

The reference is the same well before dosing, and untreated signal decays as well.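 Labels refer to human fibroblasts, largely primary: uterine (C12385, HUF), lung (H6013), bone (Hs27A), adrenal (HADF), skin (WS1), plus mammary HMF and breast cancer-associated Hs343T. Cancer lines are basal-like or mesenchymal-like triple-negative breast cancer. The paper counts as hits responses shifting over 3x the replicate standard deviation. The tissue of the other fibroblasts is not given here.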
